Numbering of substitutions follows the chain as printed. Results are given in words; binding and its absence hold for the method and conditions named. Binding seen in cells or lysates may run through a third protein. A result given as binding can be weak or reduced; the word gives no strength. Tags and fused reporters may be left off the sequences shown.
How the values were obtained:
Assay in all cases: co-IP; FLAG-TNK1 (WT or mutants) precipitated on anti-DYKDDDDK resin from HEK-293T lysate (10 mM HEPES KOH pH 7.5, 150 mM KCl, 0.01% IGEPAL), 1 h 4 °C, washed with PBS; immunoblotted for 14-3-3 or ubiquitin; in Fig. 2c cells treated with 1 uM kinase inhibitors for 4 h
[1] = biological target: T1, FLAG-TNK1 S502A (human) (UniProt Q13470)
T1 sequence: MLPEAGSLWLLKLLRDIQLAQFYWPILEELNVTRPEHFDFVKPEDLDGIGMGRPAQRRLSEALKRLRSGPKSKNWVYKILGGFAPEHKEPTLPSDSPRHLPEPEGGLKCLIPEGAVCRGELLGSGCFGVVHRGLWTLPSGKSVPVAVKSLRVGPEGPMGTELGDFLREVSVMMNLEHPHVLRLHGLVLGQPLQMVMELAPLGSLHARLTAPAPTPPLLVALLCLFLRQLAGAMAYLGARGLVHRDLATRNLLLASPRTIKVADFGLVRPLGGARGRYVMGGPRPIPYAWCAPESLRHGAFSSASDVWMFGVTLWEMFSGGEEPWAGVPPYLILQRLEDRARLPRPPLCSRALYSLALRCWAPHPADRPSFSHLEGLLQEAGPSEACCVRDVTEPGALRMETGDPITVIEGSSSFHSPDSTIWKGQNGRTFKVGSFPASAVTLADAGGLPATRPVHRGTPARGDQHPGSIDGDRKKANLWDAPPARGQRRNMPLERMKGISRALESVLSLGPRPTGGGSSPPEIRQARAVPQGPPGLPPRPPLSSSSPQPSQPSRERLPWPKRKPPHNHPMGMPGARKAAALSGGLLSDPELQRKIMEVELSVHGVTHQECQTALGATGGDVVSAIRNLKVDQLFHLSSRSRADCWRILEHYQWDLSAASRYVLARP

[2] = biological target: T2, FLAG-TNK1 T392A (human) (UniProt Q13470)
T2 sequence: T1 sequence with T392A, A502S

[3] = biological target: T3, FLAG-TNK1 T91A (human) (UniProt Q13470)
T3 sequence: T1 sequence with T91A, A502S

- binding [1]: binds weakly
- binding [2]: binds
- binding [3]: binds
Substance: 14-3-3 (endogenous, isoform not told) (human (endogenous in HEK-293T or A549))
